Experiments:
Assay type in all cases: binding, rabbit
[1] = tested on: As382; assay: Competitive indirect ELISA for detection of HHQ (As382, coating antigen I-7)
Experimental: (§1) The competitive assay was carried out in a 96 well Maxisorp flat-bottom plates, coated using 100 μL of a BSA conjugate solution in coating buffer pH=9.6. Then, plates were covered with adhesive plate sealer and incubated overnight at 4° C. The day after, plates were washed with PBST (4×300 μL) using the platewasher Biotek ELx405 HT. Sequentially, 50 μL of the corresponding sample solution, containing the analyte HHQ, PQS or HQNO (2 μM to 0.13 nM) or MH medium were added, followed by 50 μL addition of a fixed As dilution and left without agitation 30 min at RT. After another washing step, a 1/6000 dilution of goat AntiRabbit IgG-HRP in PBST was added and incubated 30 min at RT. After a final washing, 100 μL of a substrate solution was added and left 30 min at RT in the dark. Once the time was consumed, the enzymatic reaction was stopped by adding 50 μl of H2SO4 4M solution and the absorbances read at 450 nm. Absorbance data were plotted and analyzed using GraphPad software. The standard calibration curve was fitted to a four-parameter equation according to the following formula: […], where A is the maximum absorbance, B is the minimum absorbance, C is the concentration producing 50% of the maximal absorbance, and D is the slope at the inflection point of the sigmoid curve. Unless otherwise indicated, the data presented correspond to the average of at least two well replicates.
(§2) Regarding specificity studies, it was followed the experimental procedure for indirect competitive ELISA described above. It was assessed the avidity of As versus other quinolone effector molecules of the pqs system from P. aeruginosa. Each assay was run using HHQ, PQS and HQNO as analyte. Cross reactivity was calculated through the equation: […].

[2] = tested on: As389; assay: Competitive indirect ELISA for detection of HQNO (As389, coating antigen I-5); conditions: I-5 0.250 μg/mL
Experimental: as §1, §2

[3] = tested on: As385; assay: Competitive indirect ELISA for detection of PQS (As385, coating antigen I-5); conditions: I-5 0.039 μg/mL
Experimental: as §1, §2

[4] = MH diluted 1/5, As382 dil. 1/64000, I-7 0.156 μg/mL
[5] = PBST, As382 dil. 1/32000, I-7 0.313 μg/mL
[6] = MH diluted 1/5, As389 dil. 1/16000
[7] = MH diluted 1/10, As385 dil. 1/64000
[8] = PBS + 0.01% Tween + 0.1 mM EDTA, As385 dil. 1/48000

CCCCCCCc1cc(=O)c2ccccc2[nH]1 [HHQ, 2-heptyl-4-quinolone]
Dynamic Range, lower limit [1, 4]: 0.448 ± 0.081 to
Dynamic Range, upper limit [1, 4]: 21.605 ± 4.736
LOD [1, 4]: 0.167 ± 0.051
Slope [1, 4]: −0.704 ± 0.015
Dynamic Range, lower limit [1, 5]: 0.894 ± 0.214 to
Dynamic Range, upper limit [1, 5]: 22.797 ± 3.691
LOD [1, 5]: 0.341 ± 0.132
Slope [1, 5]: −0.874 ± 0.114

CCCCCCCc1cc(=O)c2ccccc2n1O [HQNO, 2-heptyl-4-quinolone N-oxide]
Dynamic Range, lower limit [2, 6]: 0.413 ± 0.102 to
Dynamic Range, upper limit [2, 6]: 17.044 ± 1.076
LOD [2, 6]: 0.147 ± 0.053
Slope [2, 6]: −0.720 ± 0.064
Dynamic Range, lower limit ([2]; PBS at pH = 6.5, As389 dil. 1): 0.723 ± 0.181 to
Dynamic Range, upper limit ([2]; PBS at pH = 6.5, As389 dil. 1): 26.707 ± 0.958
LOD ([2]; PBS at pH = 6.5, As389 dil. 1): 0.266 ± 0.087
Slope ([2]; PBS at pH = 6.5, As389 dil. 1): −0.754 ± 0.037

CCCCCCCc1[nH]c2ccccc2c(=O)c1O [PQS, 2-heptyl-3-hydroxy-4-quinolone]
Dynamic Range, lower limit [3, 7]: 0.973 ± 0.250 to
Dynamic Range, upper limit [3, 7]: 36.157 ± 6.197
LOD [3, 7]: 0.362 ± 0.137
Slope [3, 7]: −0.734 ± 0.110
Dynamic Range, lower limit [3, 8]: 0.528 ± 0.043 to
Dynamic Range, upper limit [3, 8]: 24.365 ± 3.182
LOD [3, 8]: 0.169 ± 0.012
Slope [3, 8]: −0.723 ± 0.006
